# For at least one compound, name, drawing or mass did not settle the structure.
# Columns and labels:
# CMV-infected pups [1] = assay: Righting reflex sensorimotor test; format: in vivo, rat; conditions: only pups who successfully performed the test; p=0.24
# Procedure: (§1) Wistar rats (Janvier Labs, France) were raised and mated at INMED Post Genomic Platform (PPGI) animal facility. Rat cytomegalovirus (rat CMV) recombinant Maastricht strain (RCMV-Δ145-147-gfp) with a green fluorescent protein (GFP) expression cassette, and its production, purification and titration, were reported previously (17). In utero icv injections were performed at E15 as previously described (9,18) in embryos from timed pregnant rats that were anaesthetized with ketamine (100 mg/kg)/xylazine (10 mg/kg). […] Microglia status was modified in the embryos in vivo with doxycycline per os given to the mother throughout pregnancy (200 mg/kg in food pellet chow, Bioserv).
# (§2) For righting reflex evaluation, rat pups were placed in a supine position, and the time required to flip to the prone position was measured. For the cliff aversion reflex, animals were placed with their forepaws overhanging the edge of a board; the time required to turn >90° away from the edge was recorded. […] Generalized tonic-clonic epileptic seizures were detected visually, usually after animal handling, especially during cage changing and behavioral testing. […] For each rat, the reference electrode was inserted beneath the pinna of the assessed ear, the positive electrode beneath the skin on the vertex of the head, the ground electrode on the animal's back. […] Impedances were monitored to be below 2000Ω. […]
# rat CMV [2] = assay: Flow cytometry of GFP+ CMV-infected CD45+ cells from brain; format: in vivo; conditions: treated vs untreated pups
# CMV-infected pups [3] = assay: Postnatal body weight gain of CMV-infected pups; format: in vivo, rat; conditions: doxycycline in utero vs untreated CMV-infected; p<10^-4
# rat CMV [4] = assay: qRT-PCR of GFP expression in CMV-infected brains; format: in vivo; conditions: treated vs untreated CMV-infected brains at P1
# CMV-infected pups [5] = assay: Cliff aversion reflex sensorimotor test; format: in vivo, rat; conditions: p=0.0009
# Procedure: as §1, §2
# microglia = assay: Flow cytometry of brain leukocytes (CD45, CD11b/c, RT1B) for microglia status; format: in vivo, rat; conditions: P7, seven days after discontinuation
# Procedure: as §1
# Leukocytes from brains obtained from anesthetized P1 or P7 pups were isolated as previously described (9). 1 to 3×10^6 leukocytes were incubated with Zombie NIR Fixable Viability kit (1:200; Bio legend) for 20 min at RT. Fc receptors were blocked using mouse anti-rat CD32 antibody (FcγII receptor, clone D34-485) for 10 min. at 4° C. to prevent against nonspecific binding. Cells were then stained with antibodies against combinations of cell surface markers as previously listed and described (9). An average of 1.3×10^5 living singlet cells were analyzed per brain equivalent on a BD LSRFortessa cell cytometer and raw data were analyzed using FACSDiva V8.0 software (BD Biosciences).
# CMV-infected pups [6] = assay: Auditory evoked potentials, hearing threshold; format: in vivo, rat; conditions: P40; data not shown
smiles,measurement,setting,value
C[C@H]1c2cccc(O)c2C(=O)C2=C(O)[C@]3(O)C(=O)C(C(N)=O)=C(O)[C@@H](N(C)C)[C@@H]3[C@@H](O)[C@@H]21 [doxycycline],time to succeed in righting reflex,CMV-infected pups [1],no significant difference
same,proportions of CMV-infected GFP+ cells among CD45+ hematopoietic cells,rat CMV [2]; P1,not significantly different
same,GFP+ infected cells by flow cytometry,rat CMV [2]; P7,no significant difference
same,body weight gain,CMV-infected pups [3],Significant improvement
same,GFP gene expression by qRT-PCR,rat CMV [4],No significant difference
same,time to perform successfully the cliff aversion test,CMV-infected pups [5],significantly decreased
same,decreased proportion of total microglial cells (fraction III) triggered by CMV infection,microglia,not counteracted
same,hearing threshold,CMV-infected pups [6],no rescue

# From patent US11690856B2, “Compounds for treating CMV related diseases” (INSERM (INSTITUT NATIONAL DE LA SANTE ET DE LA RECHERCHE …, priority 2017, dated 2023)
